# Laboratory results published in the supplement of paper PMC3682954.
# Where a name gives a salt, the structure may show the parent alone. ± gives the standard deviation of the averaged measurements. Some of the results follow. Single values are uncertain, as repeats are few or missing.
# Test system: RAW 264.7
# Experiment: cell viability (MTT) relative to vehicle control; higher = more viable cells
# Conditions: stimulus: HMGB1 5 ug/ml, 18 h
# [1] = compound concentration: 1 ug/ml
SMILES,cell viability (compound concentration: 3 uM),cell viability [1]
Oc1cc2c(cc1O)C(c1ccccc1)CNCC2 (racemic),98.4%,–
NC1CCN(c2nc3c(cc2F)c(=O)c(C(=O)O)cn3-c2ccc(F)cc2F)C1 (stereo unspecified) [Tosufloxacin hydrochloride],111%,–
NC1CCN(c2nc3c(cc2F)c(=O)c(C(=O)O)cn3-c2ccc(F)cc2F)C1 (stereo unspecified),94.5%,–
NC1CCN(c2nc3c(cc2F)c(=O)c(C(=O)O)cn3-c2ccc(F)cc2F)C1 (stereo unspecified) [Tosufloxacin],98.4%,–
C=CCCCCCCCCC(=O)[O-].C=CCCCCCCCCC(=O)[O-].[Zn+2],104%,–
Cc1cc(N)c2ccccc2[n+]1CCCCCCCCCC[n+]1c(C)cc(N)c2ccccc21 [Dequalinium dichloride],77%,–
Cc1cc(N)c2ccccc2[n+]1CCCCCCCCCC[n+]1c(C)cc(N)c2ccccc21,98.2%,–
Cc1cc(N)c2ccccc2[n+]1CCCCCCCCCC[n+]1c(C)cc(N)c2ccccc21 [Dequalinium chloride hydrate],98.2%,–
Nc1ccn([C@@H]2CS[C@H](CO)O2)c(=O)n1 [Lamivudine],116%,–
Nc1ccn([C@@H]2CS[C@H](CO)O2)c(=O)n1,93%,–
Nc1c2c(nc3ccccc13)CCCC2O (stereo unspecified) [Hydroxytacrine maleate],106%,–
Nc1c2c(nc3ccccc13)CCCC2O (stereo unspecified) [Hydroxytacrine],102%,–
COc1ccccc1OCC(O)COC(N)=O (stereo unspecified),109%,–
COc1ccccc1OCC(O)COC(N)=O (stereo unspecified) [Methocarbamol],103%,–
CCN(CC)CCCCCCCCOC(=O)c1cc(OC)c(OC)c(OC)c1 [TMB-8 hydrochloride],108%,–
CO/N=C(\C(=O)N[C@@H]1C(=O)N2C(C(=O)OC(C)OC(C)=O)=C(COC(N)=O)CS[C@H]12)c1ccco1 (stereo partly specified),110%,–
N#CC(C#N)=C(N)/C(C#N)=C/c1cc(O)c(O)c(O)c1 [Tyrphostin 51],117%,–
O=C(O)CP(=O)(O)O [Phosphonoacetic acid],114%,–
Cn1ccc2cc3c(cc21)CCN3C(=O)Nc1cccnc1,113%,–
CC1=C(C2=C(C)C(C(C)C)C3=C(C(=O)C(O)C3O)C2O)C(O)C2=C(C(O)C(O)C2=O)C1C(C)C (stereo unspecified),–,102%
CC1(C)[C@@H](OC(=O)CCC(=O)O)CC[C@]2(C)[C@H]3C(=O)C=C4[C@@H]5C[C@@](C)(C(=O)O)CC[C@]5(C)CC[C@@]4(C)[C@]3(C)CC[C@@H]12,104%,–

SMILES,cell viability (compound concentration: 3 uM),cell viability [1]
CC1(C)[C@@H](OC(=O)CCC(=O)O)CC[C@]2(C)[C@H]3C(=O)C=C4[C@@H]5C[C@@](C)(C(=O)O)CC[C@]5(C)CC[C@@]4(C)[C@]3(C)CC[C@@H]12 [Carbenoxolone disodium salt],90.4%,–
CC(CN(C)C)CN1c2ccccc2Sc2ccccc21 (stereo unspecified),107%,–
CC(CN(C)C)CN1c2ccccc2Sc2ccccc21 (stereo unspecified) [Trimeprazine tartrate],87.6%,–
C#C[C@]1(O)CC[C@H]2[C@@H]3CCC4=CC(=O)CC[C@@H]4[C@H]3CC[C@@]21CC [Norgestrel-(-)-D],118%,–
C#C[C@]1(O)CC[C@H]2[C@@H]3CCC4=CC(=O)CC[C@@H]4[C@H]3CC[C@@]21CC [Levonorgestrel],103%,–
C#C[C@]1(O)CC[C@H]2[C@@H]3CCC4=CC(=O)CC[C@@H]4[C@H]3CC[C@@]21CC,99.6%,–
N[C@@H](Cc1ccc(Cl)cc1)C(=O)O [L-4-Chlorophenylalanine],–,94.9%
N=C(N)NCCN1CCCCCCC1 [Guanethidine sulfate],105%,–
N=C(N)NCCN1CCCCCCC1,107%,–
N#C/C(=C\c1ccc(O)c(O)c1)C(=O)NCc1ccccc1 [Tyrphostin AG 490],111%,–
CC(=O)OCC(=O)[C@H]1CC[C@H]2[C@@H]3CCC4=CC(=O)CC[C@]4(C)[C@H]3CC[C@]12C [deoxycorticosterone acetate],–,108%
CC(=O)OCC(=O)[C@H]1CC[C@H]2[C@@H]3CCC4=CC(=O)CC[C@]4(C)[C@H]3CC[C@]12C,114%,–
"C#CCn1c(=O)c2c(ncn2C)n(C)c1=O [3,7-Dimethyl-1-propargylxanthine]",99%,–
O=C(/C=C/c1ccc(O)c(O)c1)O[C@@H]1C[C@](O)(C(=O)O)C[C@@H](O)[C@H]1O [Chlorogenic Acid],–,77.3%
COc1ccc2c(=O)cc(-c3ccccc3)oc2c1O,–,83.2%
C=CCOC(Cn1ccnc1)c1ccc(Cl)cc1Cl (stereo unspecified) [Enilconazole],82.5%,–
C=CCOC(Cn1ccnc1)c1ccc(Cl)cc1Cl (stereo unspecified),113%,–
CC(=O)O[C@H]1CC[C@@]2(C)C(=CC[C@H]3[C@@H]4CC[C@H](C(C)=O)[C@@]4(C)CC[C@@H]32)C1 [Pregnenolone acetate],–,110%
CC(=O)OCC(=O)[C@@]1(OC(C)=O)[C@@H](C)C[C@H]2[C@@H]3C[C@H](F)C4=CC(=O)C=C[C@]4(C)[C@@]3(F)[C@@H](O)C[C@@]21C [Diflorasone Diacetate],99%,–
C[C@]1(Cn2ccnn2)[C@H](C(=O)O)N2C(=O)C[C@H]2S1(=O)=O [Tazobactam],112%,–
"O=c1cc(-c2ccccc2)oc2c1ccc1ccccc12 [7,8-Benzoflavone; alpha-Naphthoflavone]",–,99.8%

SMILES,cell viability (compound concentration: 3 uM),cell viability [1]
CC(CN(C)C)C(C)(O)Cc1ccc(Cl)cc1 (stereo unspecified) [Clobutinol hydrochloride],109%,–
CC[C@@H](CO)NCCN[C@@H](CC)CO [Ethambutol dihydrochloride],90.4%,–
CC[C@@H](CO)NCCN[C@@H](CC)CO,109%,–
"CN(C)CCC(c1ccc(Br)cc1)c1ccccn1 (single isomer, unassigned; (+)) [(+)-Brompheniramine maleate]",93.5%,–
"Nc1nc2c(ncn2[C@H]2C[C@H](O)[C@@H](COP(=O)(O)O)O2)c(=O)[nH]1 [2'-Deoxyguanosine 5'-monophosphate, sodium salt hydrate]",–,101%
CCCOc1ccc(C(=O)OCCN(CC)CC)cc1N [Proparacaine hydrochloride],96.7%,–
CCN(CC)CCOCCOC(=O)C(CC)(CC)c1ccccc1,106%,–
"CC(N)(Cc1ccc(O)c(O)c1)C(=O)O (racemic) [(±)-3-(3,4-dihydroxyphenyl)-2-methyl-DL-alanine]",101%,–
"COc1cc(OC)c(C(=O)/C=C/c2ccc(O)c(OC)c2)c(OC)c1 [4-Hydroxy-2',3,4',6'-tetramethoxychalcone]",–,94.6%
CCCCC/C=C\C/C=C\C/C=C\C/C=C\CCCC(=O)O [Arachidonic acid],–,123%
O=c1c(-c2ccc(O[C@@H]3O[C@H](CO)[C@@H](O)[C@H](O)[C@H]3O)cc2)coc2cc(O)cc(O)c12,–,104%
NC(CCC(=O)O)C(=O)O (stereo not drawn) [D(-)-Glutamic acid],–,106%
NC(=O)c1cccc(N)c1 [3-aminobenzamide],102%,–
COCCc1ccc(OCC(O)CNC(C)C)cc1 (racemic) [(±)-Metoprolol (+)-tartrate],117%,–
C[S+]([O-])CCC(N)C(=O)O (racemic) [DL-Methionine sulfoxide],–,100%
C=CCSCC1Nc2cc(Cl)c(S(N)(=O)=O)cc2S(=O)(=O)N1 (stereo unspecified),106%,–
C=CCSCC1Nc2cc(Cl)c(S(N)(=O)=O)cc2S(=O)(=O)N1 (stereo unspecified) [Althiazide],128%,–
"O=C(O)c1[nH]c(=O)[nH]c(=O)c1[N+](=O)[O-] [5-Nitroorotic acid, potassium salt monohydrate]",–,105%
CNC(=N)NCCC[C@H](N)C(=O)O [NG-Monomethyl-L-arginine acetate],105%,–
O=C(O)C1=CCCN(CCON=C(c2ccccc2)c2ccccc2)C1 [NO-711 hydrochloride],106%,–
Clc1ccc(N2CCN(Cc3cc4ccccn4n3)CC2)cc1,112%,–

SMILES,cell viability (compound concentration: 3 uM),cell viability [1]
CN(C)CC/C=C1/c2ccccc2COc2ccc(CC(=O)O)cc21 [Olopatadine hydrochloride],101%,–
CN(C)CC/C=C1/c2ccccc2COc2ccc(CC(=O)O)cc21 [Olopatadine],101%,–
CN(C)CC/C=C1/c2ccccc2COc2ccc(CC(=O)O)cc21,98.3%,–
Nc1ncnc2n[nH]c(Nc3ccc(F)cc3)c12,110%,–
c1ccc(CN(CC2=NCCN2)c2ccccc2)cc1 [Antazoline hydrochloride],103%,–
c1ccc(CN(CC2=NCCN2)c2ccccc2)cc1,108%,–
CC(=O)N(CC(O)CN(C(C)=O)c1c(I)c(C(=O)NCC(O)CO)c(I)c(C(=O)NCC(O)CO)c1I)c1c(I)c(C(=O)NCC(O)CO)c(I)c(C(=O)NCC(O)CO)c1I (stereo unspecified) [Iodixanol],85.1%,–
CC(C(=O)O)c1ccc(C(=O)c2ccccc2)s1 (stereo unspecified) [Tiaprofenic acid],95.1%,–
C#CCN(C)CCCOc1ccc(Cl)cc1Cl,108%,–
C#CCN(C)CCCOc1ccc(Cl)cc1Cl [Clorgyline hydrochloride],104 ± 6.9%,–
CC(C)(CO)Cc1cc(C(C)(C)C)c(O)c(C(C)(C)C)c1,119%,–
O=C(O)CN(CCN(CC(=O)O)CC(=O)O)CCN(CC(=O)O)CC(=O)O,112%,–
O=C(O)CN(CCN(CC(=O)O)CC(=O)O)CCN(CC(=O)O)CC(=O)O [Pentetic acid],123%,–
O=C(O)CN(CCN(CC(=O)O)CC(=O)O)CCN(CC(=O)O)CC(=O)O [Diethylenetriaminepentaacetic acid],96%,–
CCCn1cnc2c1c(=O)n(CCCCC(C)=O)c(=O)n2C [Propentofylline],102%,–
CCCn1cnc2c1c(=O)n(CCCCC(C)=O)c(=O)n2C,114%,–
CCCCCCCCCCCCCCSCC(=O)O [Tetradecylthioacetic acid],111%,–
"CC(=O)/C(C)=N/O [2,3-Butanedione monoxime]",112%,–

# Shown as tab-separated lines: part of the list above
SMILES	cell viability (compound concentration: 3 uM)	cell viability [1]
Cc1cc(N)c2ccccc2[n+]1CCCCCCCCCC[n+]1c(C)cc(N)c2ccccc21 [Dequalinium chloride hydrate]	98.2%	–
Nc1ccn([C@@H]2CS[C@H](CO)O2)c(=O)n1	93%	–
COc1ccccc1OCC(O)COC(N)=O (stereo unspecified) [Methocarbamol]	103%	–
C[S+]([O-])CCC(N)C(=O)O (racemic) [DL-Methionine sulfoxide]	–	100%
CN(C)CC/C=C1/c2ccccc2COc2ccc(CC(=O)O)cc21	98.3%	–
C#CCN(C)CCCOc1ccc(Cl)cc1Cl	108%	–
